From patent US20240052042A1 (Novartis, published 2024) come the findings set out here.

Protein sequences, listed by entry. Tags and fused reporters are not part of them. Residues count along the entry.
UniProt P02769, residues 25-607: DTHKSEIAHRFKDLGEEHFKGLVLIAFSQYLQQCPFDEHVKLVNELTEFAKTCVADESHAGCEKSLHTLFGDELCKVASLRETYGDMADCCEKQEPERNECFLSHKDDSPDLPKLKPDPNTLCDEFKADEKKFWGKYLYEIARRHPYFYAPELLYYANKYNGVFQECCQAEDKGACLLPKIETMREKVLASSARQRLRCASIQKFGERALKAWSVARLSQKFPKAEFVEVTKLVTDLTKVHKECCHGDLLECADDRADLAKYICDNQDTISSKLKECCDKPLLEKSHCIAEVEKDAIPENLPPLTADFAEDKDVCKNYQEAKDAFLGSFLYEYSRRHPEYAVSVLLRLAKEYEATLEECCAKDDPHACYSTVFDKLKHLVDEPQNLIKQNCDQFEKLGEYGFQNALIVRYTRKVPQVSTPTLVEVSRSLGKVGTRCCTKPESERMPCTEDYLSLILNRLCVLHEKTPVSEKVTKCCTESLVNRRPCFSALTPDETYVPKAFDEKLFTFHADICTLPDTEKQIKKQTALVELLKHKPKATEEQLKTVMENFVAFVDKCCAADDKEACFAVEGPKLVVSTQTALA

For one assay, the target named is BSA (bovine) (UniProt P02769). Nature of the assay: ELISA, IgG titrated on coated antigen, fluorescence. (ELISA stands for enzyme-linked immunosorbent assay.)
Another assay addresses T1, rNPR1-ANP complex (rat).
T1 sequence: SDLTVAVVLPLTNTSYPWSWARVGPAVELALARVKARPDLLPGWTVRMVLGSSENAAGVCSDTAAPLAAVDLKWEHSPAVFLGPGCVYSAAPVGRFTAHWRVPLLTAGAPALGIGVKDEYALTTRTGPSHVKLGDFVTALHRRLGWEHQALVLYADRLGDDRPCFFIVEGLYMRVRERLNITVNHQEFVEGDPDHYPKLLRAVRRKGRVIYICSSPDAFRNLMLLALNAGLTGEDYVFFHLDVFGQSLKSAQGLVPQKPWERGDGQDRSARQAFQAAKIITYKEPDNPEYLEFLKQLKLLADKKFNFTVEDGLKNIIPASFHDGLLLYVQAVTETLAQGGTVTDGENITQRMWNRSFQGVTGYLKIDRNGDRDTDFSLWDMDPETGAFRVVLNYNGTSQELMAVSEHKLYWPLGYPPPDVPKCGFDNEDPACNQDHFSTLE
T1 sequence (peptide): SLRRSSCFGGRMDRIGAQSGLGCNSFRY
Nature of the assay: ELISA, IgG titrated on coated antigen with ANP (250 fold molar excess), fluorescence.

These are yes or no findings as the source states them, for the method shown. Some results given as binding are weak or reduced against the parent protein; the word gives no strength.

B1: YY01 (IgG format) (antibody, V domains shown)
VH: EVQLVESGGGLVQPGGSLRLSCAASGFTFSSYWISWVRQAPGKGLEWVANIKQSGSETYYVESVKGRFTISRDNAKNSLYLQMNSLRAEDTAVYYCARSLRRRSTEHAGFDVWGQGTLVTVSS
VL: DIQMTQSPSSLSASVGDRVTITCRASQGISNYLAWYQQKPGKVPKLLIYAASTLQSGVPSRFSGSGSGTDFTLTISSLQPEDVATYYCQQADKFPYTFGQGTKVEIKR
notes: also called YY01_LALA
Regarding B1, the binding result is “no binding (tested: 1000 nM)” with BSA (bovine) and “binds” with rNPR1-ANP complex (rat).
